According to patent WO2005095457A2 (dated 2005):
No constants are given. Whether binding was seen depends on the method and setting. Some entries that bind do so weakly or less than the wild type.

T1: cynomolgus monkey OSM (cOSM) (cynomolgus monkey)
T1 sequence: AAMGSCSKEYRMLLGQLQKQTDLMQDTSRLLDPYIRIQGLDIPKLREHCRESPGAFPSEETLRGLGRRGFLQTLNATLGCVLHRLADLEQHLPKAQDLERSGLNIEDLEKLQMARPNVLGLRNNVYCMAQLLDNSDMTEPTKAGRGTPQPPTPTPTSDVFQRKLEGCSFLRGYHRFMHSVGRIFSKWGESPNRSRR


Tests used:
[1] = biological target: T1, cynomolgus monkey OSM (cOSM) (cynomolgus monkey); test: gp130 inhibition ELISA, CHO supernatant
[2] = biological target: T1, cynomolgus monkey OSM (cOSM) (cynomolgus monkey); test: gp130 inhibition ELISA, purified antibodies

| binding [1] | binding [2] | Binder |
| --- | --- | --- |
| binds | binds | humanised 15E10 antibody B4L2 (antibody, V domains shown) VH: QVQLVESGGGVVQPGRSLRLSCAASGFSLTNYGVHWVRQAPGKGLEWVAVIWRGGSTDYNAAFMSRLTISKDNSKNTLYLQMNSLRAEDTAVYYCAKSPNSNFYWYFDVWGRGTLVTVSS VL: EIVLTQSPATLSLSPGERATLSCSGSSSVSYMYWYQQKPGQAPRLLIEDTSNLASGIPARFSGSGSGTDYTLTISNLEPEDFAVYYCQQWSSYPPTFGQGTKLEIKR |
| – | binds | humanised 15E10 antibody B2L2 (antibody, V domains shown) VH: QVQLVESGGGVVQPGRSLRLSCAASGFSLTNYGVHWVRQAPGKGLEWVAVIWRGGSTDYNAAFMSRFTISRDNSKNTLYLQMNSLRAEDTAVYYCAKSPNSNFYWYFDVWGRGTLV VL: EIVLTQSPATLSLSPGERATLSCSGSSSVSYMYWYQQKPGQAPRLLIEDTSNLASGIPARFSGSGSGTDYTLTISNLEPEDFAVYYCQQWSSYPPTFGQGTKLEIK |
